The results in this text go back to publication PMC10199020.

The chains behind the UniProt entries cited, without tags or fusion partners. Where a name states a change or a piece, a line headed by the entry shows the natural chain unless it says otherwise. A line that says so, or that is headed by a name, gives the form on record, which may keep a tag or linker. Residues count along the entry.
NL-IL23R (Q5VWK5, residues 24-629): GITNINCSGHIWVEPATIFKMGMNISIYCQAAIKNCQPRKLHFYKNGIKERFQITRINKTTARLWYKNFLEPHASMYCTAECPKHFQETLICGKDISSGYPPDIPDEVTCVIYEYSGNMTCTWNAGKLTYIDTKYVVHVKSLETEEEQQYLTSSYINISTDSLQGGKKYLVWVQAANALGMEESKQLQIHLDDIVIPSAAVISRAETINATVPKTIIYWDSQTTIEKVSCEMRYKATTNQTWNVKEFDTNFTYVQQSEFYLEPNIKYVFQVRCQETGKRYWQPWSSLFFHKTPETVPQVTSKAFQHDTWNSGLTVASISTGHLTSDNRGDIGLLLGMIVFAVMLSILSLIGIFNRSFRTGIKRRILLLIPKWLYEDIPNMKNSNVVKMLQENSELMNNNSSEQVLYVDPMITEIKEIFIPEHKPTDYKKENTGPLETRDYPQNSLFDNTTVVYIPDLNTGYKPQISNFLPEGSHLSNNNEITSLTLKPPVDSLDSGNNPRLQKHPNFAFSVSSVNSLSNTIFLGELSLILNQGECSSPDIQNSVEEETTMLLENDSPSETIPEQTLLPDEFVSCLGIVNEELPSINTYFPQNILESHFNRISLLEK
NL-IL23R C115Y (Q5VWK5, form named): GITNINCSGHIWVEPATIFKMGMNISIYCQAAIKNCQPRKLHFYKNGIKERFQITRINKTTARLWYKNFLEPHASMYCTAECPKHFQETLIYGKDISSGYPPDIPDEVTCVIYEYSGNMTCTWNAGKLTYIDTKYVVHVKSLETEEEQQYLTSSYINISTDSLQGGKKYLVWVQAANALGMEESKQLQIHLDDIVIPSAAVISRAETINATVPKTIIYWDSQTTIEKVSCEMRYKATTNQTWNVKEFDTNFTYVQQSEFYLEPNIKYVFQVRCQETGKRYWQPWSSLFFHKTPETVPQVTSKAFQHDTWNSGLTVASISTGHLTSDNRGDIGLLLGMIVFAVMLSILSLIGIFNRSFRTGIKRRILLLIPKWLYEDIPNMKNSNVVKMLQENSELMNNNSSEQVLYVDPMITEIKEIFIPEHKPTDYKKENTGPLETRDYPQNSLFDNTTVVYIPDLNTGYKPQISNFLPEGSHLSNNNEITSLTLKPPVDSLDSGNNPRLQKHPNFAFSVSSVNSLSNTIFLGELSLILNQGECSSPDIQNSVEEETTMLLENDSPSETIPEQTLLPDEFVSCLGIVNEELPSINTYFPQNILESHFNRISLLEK
UniProt Q9NPF7: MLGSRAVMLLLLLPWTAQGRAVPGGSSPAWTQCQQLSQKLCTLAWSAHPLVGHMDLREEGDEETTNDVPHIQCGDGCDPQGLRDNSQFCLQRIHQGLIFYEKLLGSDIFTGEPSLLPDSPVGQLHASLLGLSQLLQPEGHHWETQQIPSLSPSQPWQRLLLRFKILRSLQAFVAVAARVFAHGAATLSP

The target of assay [1] is NL-IL23R (UniProt Q5VWK5). As to the kind of experiment: FRET or BRET; NanoBRET competition on living transfected HEK293T cells; 75 nM P630-TMR displaced by unlabelled antagonist (concentration series or a single concentration); 1 h at 37 °C in HBSS with 1 mg/mL BSA; only the binder purified.
For assay [2], the target named is NL-IL23R C115Y (UniProt Q5VWK5). As to the kind of experiment: FRET or BRET; NanoBRET saturation binding of IL23-TMR or P630-TMR on cells expressing wildtype or C115Y mutant receptor (Fig. 7); co-expression of IL12Rβ1 not stated; only the binder purified. A general note: Bioluminescence resonance energy transfer reports proximity on the nanometre scale.
Assay [3] concerns the target NL-IL23R (UniProt Q5VWK5). Described as above.

Results are given in words; binding and its absence hold for the method and conditions named. In cells and extracts the contact can be indirect. Some results given as binding are weak or reduced against the parent protein; the word gives no strength.

Take “IL-23 (from UniProt Q9NPF7 20-189; P29460 23-328) (ligand)”: in assay [1], the binding result is “binds”.

In the case of “IL23-TMR (TAMRA labelled version of IL-23) (from UniProt Q9NPF7 20-189; P29460 23-328) (ligand)”, the values for the binding result in assay [2] and in assay [3] were “no binding” and “binds”, respectively.
